Experimental data as given in patent US6770458.
Results are given in words; binding and its absence hold for the method and conditions named. For some assays here: In cells and extracts the contact can be indirect. Some entries that bind do so weakly or less than the wild type. Where a sequence is shown, tags or fusion partners need not be part of it.

Sequences of proteins named here, by UniProt entry; tags and fusion partners are left off. Residues count along the entry.
UniProt P37173, residues 23-567: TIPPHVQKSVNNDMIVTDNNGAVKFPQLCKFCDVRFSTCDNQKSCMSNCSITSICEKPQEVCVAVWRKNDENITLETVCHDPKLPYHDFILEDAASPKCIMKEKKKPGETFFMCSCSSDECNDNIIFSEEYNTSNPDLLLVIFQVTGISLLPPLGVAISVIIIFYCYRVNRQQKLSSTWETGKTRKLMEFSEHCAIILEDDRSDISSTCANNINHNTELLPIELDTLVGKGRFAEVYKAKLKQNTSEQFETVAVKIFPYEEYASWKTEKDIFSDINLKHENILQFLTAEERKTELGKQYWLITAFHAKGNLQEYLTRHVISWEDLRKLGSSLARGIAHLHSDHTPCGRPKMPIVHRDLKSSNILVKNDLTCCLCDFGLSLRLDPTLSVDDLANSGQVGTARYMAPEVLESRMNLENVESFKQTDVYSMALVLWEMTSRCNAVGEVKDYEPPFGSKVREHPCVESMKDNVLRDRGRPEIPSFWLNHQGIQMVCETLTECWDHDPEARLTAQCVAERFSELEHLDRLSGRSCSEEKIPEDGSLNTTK

What was measured:
[1] = target: HA-tagged TβR-II (transforming growth factor β receptor II) (UniProt P37173); assay: co-immunoprecipitation (restated in the discussion)
[2] = target: T1, HA-tagged wild type TβR-I (transforming growth factor β receptor I) (UniProt P36897); assay: as above
T1 sequence (looked up): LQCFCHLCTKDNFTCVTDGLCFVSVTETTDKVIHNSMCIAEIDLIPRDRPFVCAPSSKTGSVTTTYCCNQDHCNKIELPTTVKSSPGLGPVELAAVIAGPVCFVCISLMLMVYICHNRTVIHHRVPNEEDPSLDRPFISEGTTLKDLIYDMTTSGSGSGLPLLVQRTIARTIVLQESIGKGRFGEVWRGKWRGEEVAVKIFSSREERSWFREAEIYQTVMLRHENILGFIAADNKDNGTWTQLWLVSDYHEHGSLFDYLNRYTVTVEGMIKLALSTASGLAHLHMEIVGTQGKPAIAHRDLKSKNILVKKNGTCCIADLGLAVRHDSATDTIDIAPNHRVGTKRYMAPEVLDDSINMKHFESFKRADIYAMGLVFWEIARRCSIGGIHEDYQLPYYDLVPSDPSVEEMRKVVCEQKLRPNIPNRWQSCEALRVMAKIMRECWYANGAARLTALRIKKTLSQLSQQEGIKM

[3] = target: T2, STRAP-HA (mouse) (UniProt Q9Z1Z2); assay: as above
T2 sequence: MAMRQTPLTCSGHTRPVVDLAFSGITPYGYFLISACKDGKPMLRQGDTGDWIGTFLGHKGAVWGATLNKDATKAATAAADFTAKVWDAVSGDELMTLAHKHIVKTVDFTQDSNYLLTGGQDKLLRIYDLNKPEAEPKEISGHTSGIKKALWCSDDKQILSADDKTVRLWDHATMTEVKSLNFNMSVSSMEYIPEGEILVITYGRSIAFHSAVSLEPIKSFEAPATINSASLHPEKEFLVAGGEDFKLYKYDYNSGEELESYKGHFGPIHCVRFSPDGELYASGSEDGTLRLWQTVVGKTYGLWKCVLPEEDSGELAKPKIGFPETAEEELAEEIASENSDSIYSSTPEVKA

[4] = target: T2, STRAP-HA (mouse); assay: co-immunoprecipitation and immunoblot, transfected cells
[5] = target: T3, TβR-I(TD)-HA, constitutively active TβR-I T204D (UniProt P36897); assay: sequential immunoprecipitation (restated in the discussion)
T3 sequence (looked up): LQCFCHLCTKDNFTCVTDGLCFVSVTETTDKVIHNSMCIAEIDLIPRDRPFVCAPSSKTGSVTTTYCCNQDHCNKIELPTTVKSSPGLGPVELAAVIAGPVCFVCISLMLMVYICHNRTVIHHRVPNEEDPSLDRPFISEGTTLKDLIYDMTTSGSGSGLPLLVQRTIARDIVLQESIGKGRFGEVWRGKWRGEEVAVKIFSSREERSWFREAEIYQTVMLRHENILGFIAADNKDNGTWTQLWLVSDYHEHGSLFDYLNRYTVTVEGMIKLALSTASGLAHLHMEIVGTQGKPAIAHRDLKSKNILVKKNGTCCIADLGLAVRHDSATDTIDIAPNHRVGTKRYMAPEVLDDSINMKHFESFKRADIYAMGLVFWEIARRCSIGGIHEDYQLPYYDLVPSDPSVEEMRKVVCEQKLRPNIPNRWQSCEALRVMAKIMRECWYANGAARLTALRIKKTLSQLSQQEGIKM

[6] = target: T4, HA-tagged TβR-I K232R (kinase negative) (UniProt P36897); assay: co-immunoprecipitation and immunoblot, transfected COS-1 cells
T4 sequence (looked up): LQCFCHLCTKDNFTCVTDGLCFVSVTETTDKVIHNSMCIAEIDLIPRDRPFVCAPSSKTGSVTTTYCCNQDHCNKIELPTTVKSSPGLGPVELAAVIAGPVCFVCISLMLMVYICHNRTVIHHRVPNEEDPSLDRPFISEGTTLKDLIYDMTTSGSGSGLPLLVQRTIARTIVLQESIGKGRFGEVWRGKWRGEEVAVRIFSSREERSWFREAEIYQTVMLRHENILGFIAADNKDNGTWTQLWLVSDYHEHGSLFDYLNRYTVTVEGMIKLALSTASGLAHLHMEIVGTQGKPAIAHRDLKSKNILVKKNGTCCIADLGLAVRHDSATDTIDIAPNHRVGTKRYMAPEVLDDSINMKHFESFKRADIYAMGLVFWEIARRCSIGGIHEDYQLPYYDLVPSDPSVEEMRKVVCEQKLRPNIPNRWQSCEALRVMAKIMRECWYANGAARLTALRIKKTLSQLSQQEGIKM

[7] = target: HA-tagged TβR-II (transforming growth factor β receptor II) (UniProt P37173); assay: as above
[8] = target: T1, HA-tagged wild type TβR-I (transforming growth factor β receptor I); assay: as above
[9] = target: T2, STRAP-HA (mouse); assay: as above
[10] = target: T3, TβR-I(TD)-HA, constitutively active TβR-I T204D; assay: as above
[11] = target: T1, HA-tagged wild type TβR-I (transforming growth factor β receptor I); assay: affinity crosslinking with 125I-TGF-β1, anti-Flag immunoprecipitation, COS-1 cells
[12] = target: hexahistidine-tagged TβR-II (UniProt P37173); assay: as above
[13] = target: HA-tagged TβR-II (transforming growth factor β receptor II) (UniProt P37173); assay: co-immunoprecipitation and immunoblot, COS-1 cells, with or without TGF-β1 (240 pM)
[14] = target: T1, HA-tagged wild type TβR-I (transforming growth factor β receptor I); assay: as above
[15] = target: T3, TβR-I(TD)-HA, constitutively active TβR-I T204D; assay: sequential immunoprecipitation (anti-Flag, Flag peptide elution, anti-Myc), anti-HA blot
[16] = target: T3, TβR-I(TD)-HA, constitutively active TβR-I T204D; assay: sequential immunoprecipitation (anti-Flag, Flag peptide elution, anti-Myc), anti-HA blot, COS-1 cells
[17] = target: TβR-II-Flag (UniProt P37173); assay: anti-Flag immunoprecipitation, anti-HA blot, transfected COS-1 cells

Measured: binding

B1: STRAP-Flag (protein, not shown: small tags and cut ends)
chain: MAMRQTPLTCSGHTRPVVDLAFSGITPYGYFLISACKDGKPMLRQGDTGDWIGTFLGHKGAVWGATLNKDATKAATAAADFTAKVWDAVSGDELMTLAHKHIVKTVDFTQDSNYLLTGGQDKLLRIYDLNKPEAEPKEISGHTSGIKKALWCSDDKQILSADDKTVRLWDHATMTEVKSLNFNMSVSSMEYIPEGEILVITYGRSIAFHSAVSLEPIKSFEAPATINSASLHPEKEFLVAGGEDFKLYKYDYNSGEELESYKGHFGPIHCVRFSPDGELYASGSEDGTLRLWQTVVGKTYGLWKCVLPEEDSGELAKPKIGFPETAEEELAEEIASENSDSIYSSTPEVKA
not listed: [17]
binds: all other assays above

B2: STRAP-HA (protein, not shown: small tags and cut ends)
chain: MAMRQTPLTCSGHTRPVVDLAFSGITPYGYFLISACKDGKPMLRQGDTGDWIGTFLGHKGAVWGATLNKDATKAATAAADFTAKVWDAVSGDELMTLAHKHIVKTVDFTQDSNYLLTGGQDKLLRIYDLNKPEAEPKEISGHTSGIKKALWCSDDKQILSADDKTVRLWDHATMTEVKSLNFNMSVSSMEYIPEGEILVITYGRSIAFHSAVSLEPIKSFEAPATINSASLHPEKEFLVAGGEDFKLYKYDYNSGEELESYKGHFGPIHCVRFSPDGELYASGSEDGTLRLWQTVVGKTYGLWKCVLPEEDSGELAKPKIGFPETAEEELAEEIASENSDSIYSSTPEVKA
binds: [17]
